Experimental data published in PubChem BioAssay AID328 (DTP/NCI, 2004).
The list does not hold the whole screen: it gathers tests that were run many times, whatever their T/C, doses with no T/C, and many T/C values between a quarter and a half above the control. Other doses and runs of a compound stand elsewhere. T/C gives the treated animals as a percentage of the vehicle group. Some doses have a count of surviving animals in place of a T/C: the source files T/C as zero there, which appears to mark a toxic dose or a test without result, not a measured value. Some survivor counts are full or nearly so, which does not show that the dose was tolerated: the source hardly ever lists a survival T/C far under the control, and the zero likely stands for such cases as well. Survivors were counted at the toxicity check, usually on the fifth day, unless a day is given; later deaths do not show. Schedules are NCI's codes, read here as Q, the interval in days (D) or hours (H), X, the number of doses. Some entries were tested several times; the results are listed from low to high. For survival time, this PubChem deposit counts one and a half times the control or more as active, and values a quarter to a half above the control carry no call in these data; other NCI protocols may use other cut-offs. Some T/C values are followed by the survivors on the day toxicity was checked, most often the fifth; where none is given, no animal had died by that day.

Tested on: BDF1 mice, P388 leukemia ip, median survival T/C
Experiment: NCI In Vivo Anticancer Drug Screen. Data for tumor model P388 Leukemia (intraperitoneal) in B6D2F1 (BDF1) mice
Conditions: T/C endpoint: median survival time, higher T/C = longer survival
Procedure, shortened: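 Vehicle-dosed animals serve as the reference; survival of compound-dosed, tumour-implanted mice is divided by it.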

[1] = dose: 200.0 mg/kg/injection, schedule: Q01DX009 (ip), vehicle: water
[2] = dose: 400.0 mg/kg/injection, schedule: Q01DX009 (ip), vehicle: water
[3] = dose: 400.0 mg/kg/injection, schedule: Q01DX009 (ip), vehicle: Klucel (hydroxypropylcellulose) (HPC)
[4] = dose: 100.0 mg/kg/injection, schedule: Q04DX003 (ip), vehicle: saline
[5] = dose: 100.0 mg/kg/injection, schedule: Q01DX009 (ip), vehicle: Klucel (hydroxypropylcellulose) (HPC)
[6] = dose: 50.0 mg/kg/injection, schedule: Q01DX009 (ip), vehicle: Klucel (hydroxypropylcellulose) (HPC)
[7] = dose: 100.0 mg/kg/injection, schedule: Q01DX009 (ip), vehicle: saline with Tween-80
[8] = dose: 200.0 mg/kg/injection, schedule: Q01DX009 (ip), vehicle: saline with Tween-80
[9] = dose: 400.0 mg/kg/injection, schedule: Q01DX009 (ip), vehicle: saline with Tween-80
[10] = dose: 400.0 mg/kg/injection, schedule: Q04DX003 (ip), vehicle: saline

`SC1CC[N-]CC1.SC1CC[N-]CC1.[Cl][Pt+2][Cl]` was tested, and the survivor count [1] was 1 of 6 and the survivor count [2] was 0 of 6.
With `CC1(C)N=C(N)N=C(N)N1c1cccc(OCCCOc2ccccc2)c1` the survivor count (dose: 100.0 mg/kg/injection, schedule: Q01DX001 (ip), vehicle: Klucel (hydroxypropylcellulose) (HPC)) was 2 of 6 and the survivor count (dose: 200.0 mg/kg/injection, schedule: Q01DX001 (ip), vehicle: Klucel (hydroxypropylcellulose) (HPC)) was 0 of 6.
`COCCCNC1=C(Cl)C(=O)c2ccccc2C1=O` was tested, and the survivor count [3] was 2 of 6.
With `O=C(Nc1cc(Cl)ccc1Cl)c1ccccc1Cl` the survivor count [3] was 6 of 6.
In the case of `Cc1ncc(CO)c(C2NOCc3nscc32)c1O` (centres undefined), the survivor count (dose: 28.0 mg/kg/injection, schedule: Q01DX009 (ip), vehicle: Klucel (hydroxypropylcellulose) (HPC)) is reported as 6 of 6, the survivor count (dose: 30.0 mg/kg/injection, schedule: Q04DX003 (ip), vehicle: saline) is reported as 6 of 6 and the survivor count (dose: 65.0 mg/kg/injection, schedule: Q04DX003 (ip), vehicle: saline) is reported as 6 of 6. For the same compound, the survivor count [4] was 3 of 6 and the survivor count (dose: 150.0 mg/kg/injection, schedule: Q04DX003 (ip), vehicle: saline) was 2 of 6.
With `CN(C)c1ccc(C=C(C#N)C#N)cc1` the survivor count [5] was 3 of 6.
`Nc1cc2c(c(Cl)c1Br)-c1ccccc1C2=O` was tested, and the survivor count [6] was 6 of 6, the survivor count [5] was 5 of 6 and the survivor count (dose: 200.0 mg/kg/injection, schedule: Q01DX009 (ip), vehicle: Klucel (hydroxypropylcellulose) (HPC)) was 5 of 6. The survivor count [3] was 0 of 6.
With `CCNc1cc(Cl)nc(N)n1` the survivor count [7] was 6 of 6, the survivor count [8] was 6 of 6 and the survivor count [9] was 5 of 6.
With `COc1cc(CC#N)ccc1C` the survivor count (dose: 12.5 mg/kg/injection, schedule: Q01DX009 (ip), vehicle: Klucel (hydroxypropylcellulose) (HPC)) was 6 of 6 and the survivor count [6] was 4 of 6.
`Cc1ccc(C)c(CN(C)C)c1O` was tested, and the survivor count (dose: 100.0 mg/kg/injection, schedule: Q04DX003 (ip), vehicle: Klucel (hydroxypropylcellulose) (HPC)) was 6 of 6, the survivor count (dose: 200.0 mg/kg/injection, schedule: Q04DX003 (ip), vehicle: Klucel (hydroxypropylcellulose) (HPC)) was 3 of 6 and the survivor count (dose: 400.0 mg/kg/injection, schedule: Q04DX003 (ip), vehicle: Klucel (hydroxypropylcellulose) (HPC)) was 2 of 6.
With `NN=C(c1ccccc1)c1ccccc1` the survivor count (dose: 62.5 mg/kg/injection, schedule: Q04DX003 (ip), vehicle: Klucel (hydroxypropylcellulose) (HPC)) was 6 of 6, the survivor count (dose: 83.75 mg/kg/injection, schedule: Q01DX009 (ip), vehicle: Klucel (hydroxypropylcellulose) (HPC)) was 5 of 6 and the survivor count (dose: 285.0 mg/kg/injection, schedule: Q04DX003 (ip), vehicle: Klucel (hydroxypropylcellulose) (HPC)) was 2 of 6.
In the case of `CC1C[N+](C)(C)NC1=O` (centres undefined), the survivor count (dose: 100.0 mg/kg/injection, schedule: Q01DX001 (ip), vehicle: saline) is reported as 6 of 6.
With `COc1cccc2c1C(=O)c1c(O)c3c(c(O)c1C2=O)C[C@@](O)(/C(C)=N/NC(=O)c1ccc(Cl)cc1)C[C@@H]3OC1CC(N)C(O)C(C)O1` (some centres undefined) the T/C (dose: 0.5 mg/kg/injection, schedule: Q01DX009 (ip), vehicle: water) was 142 % of control [5 of 6 alive] and the T/C (dose: 2.0 mg/kg/injection, schedule: Q01DX009 (ip), vehicle: water) was 140 % of control.
With `C[N+]1(C2CCC3CCC2C3O)CCCCC1` (centres undefined) the survivor count [10] was 0 of 6.
For `O=C(Nc1cccc(C(F)(F)F)c1)Nc1ccc(Oc2ccc(Cl)cc2)cc1S(=O)(=O)O`, the T/C (dose: 200.0 mg/kg/injection, schedule: Q04DX003 (ip), vehicle: saline sonified) was 131 % of control.
For `O=C1CCSC(=O)N1SC(Cl)(Cl)Cl`, the survivor count [7] was 1 of 6, the survivor count [8] was 0 of 6 and the survivor count [9] was 0 of 6.
With `CC[C@H]1CN2CCc3cc(OC)c(OC)cc3[C@@H]2C[C@@H]1C[C@H]1NCCc2c1[nH]c1ccc(O)cc21` the T/C (dose: 1.0 mg/kg/injection, schedule: Q04DX003 (ip), vehicle: saline + alcohol) was 145 % of control, the survivor count (dose: 8.0 mg/kg/injection, schedule: Q04DX003 (ip), vehicle: saline + alcohol) was 5 of 8 and the survivor count (dose: 16.0 mg/kg/injection, schedule: Q04DX003 (ip), vehicle: saline + alcohol) was 0 of 8.
For `CCN(CC)CCC1(C(N)=O)Cc2ccccc2N(CC)c2ccccc21` (centres undefined), the survivor count [9] was 2 of 6.
`CC1CCC2(C(=O)O)CCC3(C)C(=CCC4C5(C)CCC(O)C(C)(C)C5CCC43C)C2C1C` (centres undefined) was tested, and the survivor count (dose: 22.0 mg/kg/injection, schedule: Q01DX010 (ip), vehicle: saline with Tween-80) was 3 of 4, the survivor count (dose: 35.0 mg/kg/injection, schedule: Q01DX010 (ip), vehicle: saline with Tween-80) was 4 of 4 and the T/C (dose: 50.0 mg/kg/injection, schedule: Q01DX010 (ip), vehicle: acetone) was 125 % of control.
`COc1cc2ccc3c4cc5c(cc4c[n+](C)c3c2cc1OC)OCO5` was tested, and the T/C (dose: 20.0 mg/kg/injection, schedule: Q01DX009 (ip), vehicle: saline) was 140 % of control, the T/C (dose: 120.0 mg/kg/injection, schedule: Q01DX009 (ip), vehicle: saline) was 127 % of control and the survivor count (dose: 240.0 mg/kg/injection, schedule: Q01DX009 (ip), vehicle: saline) was 3 of 6 and 4 of 6.
For `COC(=O)C(CSCSCc1ccccc1)NC(=O)C(CSCc1ccccc1)NC(=O)CCNC(=O)OCc1ccccc1` (centres undefined), the T/C (dose: 6.25 mg/kg/injection, schedule: Q04DX003 (ip), vehicle: Klucel (hydroxypropylcellulose) (HPC)) was 138 % of control.
For `c1ccc(C2OC3(CCCCC3)C[N+]23CCCC3)cc1` (centres undefined), the survivor count [7] was 2 of 6 and the survivor count (dose: 200.0 mg/kg/injection, schedule: Q04DX003 (ip), vehicle: saline with Tween-80) was 1 of 6.
In the case of `C=C1C(=O)OC2CC(C)C3CC(=O)C(C)=C3C(O)C12` (centres undefined), the survivor count [5] is reported as 2 of 6.
For `CCCCCCCOc1ccc(OCCCC[N+]2(CC)CCCCC2)cc1`, the survivor count (dose: 12.5 mg/kg/injection, schedule: Q01DX009 (ip), vehicle: saline) was 4 of 6 and the survivor count (dose: 25.0 mg/kg/injection, schedule: Q01DX009 (ip), vehicle: saline) was 0 of 6.
`COc1cccc2c1C(=O)c1c(O)c3c(c(O)c1C2=O)CC(O)(/C(C)=N/NC(=O)CC(=O)N/N=C(\C)C1(O)Cc2c(O)c4c(c(O)c2C(OC2CC(N)C(O)C(C)O2)C1)C(=O)c1c(OC)cccc1C4=O)CC3OC1CC(N)C(O)C(C)O1` (centres undefined) was tested, and the T/C (dose: 1.56 mg/kg/injection, schedule: Q01DX009 (ip), vehicle: water) was 138 % of control, the survivor count (dose: 12.5 mg/kg/injection, schedule: Q01DX009 (ip), vehicle: water) was 1 of 6 and the survivor count (dose: 25.0 mg/kg/injection, schedule: Q01DX009 (ip), vehicle: water) was 0 of 6.
For `OCCN(CCO)c1cc(OCc2ccccc2)cc(OCc2ccccc2)c1`, the survivor count (dose: 50.0 mg/kg/injection, schedule: Q01DX009 (ip), vehicle: water) was 6 of 6, the survivor count (dose: 100.0 mg/kg/injection, schedule: Q01DX009 (ip), vehicle: water) was 6 of 6 and the survivor count [1] was 6 of 6. The survivor count [2] was 6 of 6.
For `COC(CN1C(=O)CSC1=S)OC`, the T/C [7] was 126 and 134 % of control and the T/C [8] was 126 % of control.
`O=C(CBr)N=c1cc(-c2ccc(Cl)cc2)ss1` was tested, and the survivor count (dose: 50.0 mg/kg/injection, schedule: Q04DX003 (ip), vehicle: saline) was 6 of 6, the survivor count [4] was 6 of 6 and the survivor count (dose: 200.0 mg/kg/injection, schedule: Q04DX003 (ip), vehicle: saline) was 4 of 6. For the same compound, the survivor count [10] was 5 of 6.
